In all, about 1,600 compounds went through this assay and about 20 (1%) were called active.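 The calls were made as follows: active = ratio of uncleaved NAD to its breakdown product ADP-ribose above 4, meaning the enzyme was inhibited; inactive = the rest.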 The list shows a part of the results.
These compounds were tested against NAD(+) hydrolase SARM1 (Homo sapiens) (UniProt Q6SZW1) (assay: inhibition of SAM-TIR NAD hydrolysis to ADPR – cell lysate, HPLC readout, primary screen (AID 1508615;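 also: substrate NAD at 5 µM with 60 min at 37 °C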)). Conditions: HEK293T SAM-TIR lysate, NAD/ADPR ratio by HPLC; at 5 µM; active compounds read high.

Sequences of proteins named here, by UniProt entry; tags and fusion partners are left off. A change or cut given only in a name is not applied to a line headed by its entry.
UniProt Q6SZW1: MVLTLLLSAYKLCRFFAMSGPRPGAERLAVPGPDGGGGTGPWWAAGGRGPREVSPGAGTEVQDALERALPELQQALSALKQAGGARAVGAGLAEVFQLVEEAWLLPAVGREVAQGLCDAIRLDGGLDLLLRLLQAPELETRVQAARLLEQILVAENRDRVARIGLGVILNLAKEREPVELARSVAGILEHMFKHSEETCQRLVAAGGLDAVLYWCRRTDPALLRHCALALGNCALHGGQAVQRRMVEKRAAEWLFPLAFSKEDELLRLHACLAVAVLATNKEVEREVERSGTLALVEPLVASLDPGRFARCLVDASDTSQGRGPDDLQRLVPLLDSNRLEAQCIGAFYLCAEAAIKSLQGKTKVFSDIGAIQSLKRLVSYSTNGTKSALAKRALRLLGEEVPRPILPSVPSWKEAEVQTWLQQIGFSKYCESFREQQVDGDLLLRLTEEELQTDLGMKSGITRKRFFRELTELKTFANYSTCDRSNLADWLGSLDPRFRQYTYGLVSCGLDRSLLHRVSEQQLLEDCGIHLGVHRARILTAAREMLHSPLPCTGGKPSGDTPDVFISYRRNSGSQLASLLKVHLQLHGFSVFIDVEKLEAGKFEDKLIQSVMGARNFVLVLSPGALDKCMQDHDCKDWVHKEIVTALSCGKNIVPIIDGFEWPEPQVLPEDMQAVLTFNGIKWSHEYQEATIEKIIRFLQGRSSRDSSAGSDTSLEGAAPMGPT

`CCOC(=O)C(=CNc1ccccc1Cl)C(=O)OCC` was tested. Which NAD/ADPR ratio did it give?
The NAD/ADPR ratio was inactive: 3.

How did the NAD/ADPR ratio turn out when `Cc1nc2ccc(N)nc2nc1C` was run?
The NAD/ADPR ratio was inactive: 3.

Which NAD/ADPR ratio does the source give for `COc1ccc(OCC(O)CN2CCN(c3ccc(Cl)cc3)CC2)cc1` (stereo unspecified) here?
Its NAD/ADPR ratio is inactive: 3.

For `C=C1SC(=Nc2c(C)cccc2Cl)N(C(=O)c2sc3ccccc3c2Cl)C12CCCCC2`, which NAD/ADPR ratio is on record?
The NAD/ADPR ratio was inactive: 3.

For `COc1c(NC=O)c2c(c([N+](=O)[O-])c1OC)C(=O)OC2`, which NAD/ADPR ratio is on record?
The NAD/ADPR ratio was inactive: 3.

Which NAD/ADPR ratio does the source give for `Cc1ccccc1NC(=S)Nc1ccccn1` here?
The NAD/ADPR ratio was inactive: 3.

`O=S1(=O)CSCS(=O)(=O)C1` was tested. Which NAD/ADPR ratio did it give?
The NAD/ADPR ratio was inactive: 3.

How did the NAD/ADPR ratio turn out when `Cc1ccc(C)c(C(=O)CCC(=O)O)c1` was run?
The NAD/ADPR ratio was inactive: 3.

Which NAD/ADPR ratio does the source give for `O=C1c2ccccc2C(=Cc2cccnc2)c2ccccc21` here?
Its NAD/ADPR ratio is inactive: 3.

`O=C(Nc1ccc(Nc2ccncc2)cc1)c1ccc(Nc2ccnc3ccc([N+](=O)[O-])cc23)cc1` was tested. Which NAD/ADPR ratio did it give?
Its NAD/ADPR ratio is inactive: 3.

For `CSc1nc(=S)cc(C)[nH]1`, which NAD/ADPR ratio is on record?
Its NAD/ADPR ratio is inactive: 3.

Which NAD/ADPR ratio does the source give for `CCCOc1ccc(-c2nc(-c3ccc([N+](=O)[O-])cc3)cs2)cc1` here?
The NAD/ADPR ratio was inactive: 3.

For `Cc1[nH]c(=S)[nH]c(=O)c1CCC1OCCO1`, which NAD/ADPR ratio is on record?
Its NAD/ADPR ratio is inactive: 3.

Which NAD/ADPR ratio does the source give for `CC(C)(C)N1CC(OC(N)=O)C1` here?
Its NAD/ADPR ratio is inactive: 3.

`Cc1ccc(NCCN(C)C)c2c(=O)c3cc(O)ccc3sc12` was tested. Which NAD/ADPR ratio did it give?
The NAD/ADPR ratio was inactive: 3.2.

How did the NAD/ADPR ratio turn out when `c1ccc2c(c1)[nH]c1c3ccccc3sc21` was run?
The NAD/ADPR ratio was inactive: 3.

With `NC(=O)Oc1cccc(OC(N)=O)c1` as the compound, how does the NAD/ADPR ratio read?
The NAD/ADPR ratio was inactive: 3.

With `COc1c(NC(C)=O)c2ccccc2c2ccccc12` as the compound, how does the NAD/ADPR ratio read?
Its NAD/ADPR ratio is inactive: 3.

`COc1ccccc1NC(=O)Oc1cccc(OC(=O)c2ccccc2)c1` was tested. Which NAD/ADPR ratio did it give?
Its NAD/ADPR ratio is inactive: 3.

How did the NAD/ADPR ratio turn out when `CCN(CC)CCN1C(=O)c2cccc3cc(N)cc(c23)C1=O` was run?
The NAD/ADPR ratio was inactive: 3.

With `Nc1c(Cl)cc(S(N)(=O)=O)cc1S(N)(=O)=O` as the compound, how does the NAD/ADPR ratio read?
The NAD/ADPR ratio was inactive: 3.

Which NAD/ADPR ratio does the source give for `Cc1ccc(N=Nc2c(O)c3ccccc3[nH]c2=O)c(S(=O)(=O)N(C)C)c1` here?
The NAD/ADPR ratio was inactive: 3.

Which NAD/ADPR ratio does the source give for `Cc1cc(NC(=O)c2ccccc2)c(Cl)cc1N` here?
Its NAD/ADPR ratio is inactive: 3.

Which NAD/ADPR ratio does the source give for `O=C(c1ccc(O)cc1)c1ccc(C(=O)c2ccc(O)cc2)cc1` here?
The NAD/ADPR ratio was inactive: 3.

Which NAD/ADPR ratio does the source give for `Cc1cccc2c1c1ccc3c(c1n2C)C(=O)C=CC3=O` here?
Its NAD/ADPR ratio is active: 8.3.

Which NAD/ADPR ratio does the source give for `O=c1[nH]cc(I)cc1I` here?
Its NAD/ADPR ratio is inactive: 3.

`Cc1cc(=O)c2cc(C(=O)c3ccccc3)ccc2[nH]1` was tested. Which NAD/ADPR ratio did it give?
Its NAD/ADPR ratio is inactive: 3.

Which NAD/ADPR ratio does the source give for `O=C(Nc1ccc(Nc2ccncc2)cc1)c1ccc([N+](=O)[O-])cc1` here?
Its NAD/ADPR ratio is inactive: 3.

Which NAD/ADPR ratio does the source give for `COc1ccc(NC2=CC(=S)NC(C)(C)C2)cc1` here?
Its NAD/ADPR ratio is inactive: 3.

Which NAD/ADPR ratio does the source give for `CCOC(=O)Nc1csnn1` here?
Its NAD/ADPR ratio is inactive: 3.

`Cc1cc(NC(=O)Nc2cccc3ccccc23)no1` was tested. Which NAD/ADPR ratio did it give?
The NAD/ADPR ratio was inactive: 3.

Which NAD/ADPR ratio does the source give for `CCN(CC)CCNC(=O)c1ccc(NCN2C(=O)NC(c3ccccc3)(c3ccccc3)C2=O)cc1` here?
Its NAD/ADPR ratio is inactive: 3.

For `Cc1nc(SCC(=O)O)n[nH]1`, which NAD/ADPR ratio is on record?
Its NAD/ADPR ratio is inactive: 3.

How did the NAD/ADPR ratio turn out when `Cn1c(=O)c2c(nc(N3CCOCC3)n2C)n(C)c1=O` was run?
Its NAD/ADPR ratio is inactive: 3.

`C=CC1CN2CCC1CC2C(O)c1ccnc2ccc(OC)cc12` (stereo unspecified) was tested. Which NAD/ADPR ratio did it give?
The NAD/ADPR ratio was inactive: 3.

Which NAD/ADPR ratio does the source give for `COc1cc(NC(C)=O)c2ncccc2c1NC(C)=O` here?
Its NAD/ADPR ratio is inactive: 3.

How did the NAD/ADPR ratio turn out when `COc1ccc(Nc2cc(Cl)ccc2C(=O)O)cn1` was run?
Its NAD/ADPR ratio is inactive: 3.

`CCOC(=O)c1ccc2c(c1)NCc1cccc(OC)c1O2` was tested. Which NAD/ADPR ratio did it give?
Its NAD/ADPR ratio is inactive: 3.

With `COc1cc(OC)c2c(=O)cc(-c3cccnc3)oc2c1` as the compound, how does the NAD/ADPR ratio read?
The NAD/ADPR ratio was inactive: 3.

`CN1CCC(=C(c2ccc(Cl)cc2)c2ccccn2)CC1` was tested. Which NAD/ADPR ratio did it give?
Its NAD/ADPR ratio is inactive: 3.

With `Cc1nn(-c2ccccc2)nc1C(=O)Nc1ccc2[nH]ncc2c1` as the compound, how does the NAD/ADPR ratio read?
Its NAD/ADPR ratio is inactive: 3.

With `O=C(C=C=Nc1ccccc1)C(=O)N=C=Cc1ccccc1` as the compound, how does the NAD/ADPR ratio read?
The NAD/ADPR ratio was inactive: 3.

How did the NAD/ADPR ratio turn out when `Cc1ccc(C)c(-n2c(-c3ccc(Br)cc3)csc2=NC(=O)c2ccccc2F)c1` was run?
The NAD/ADPR ratio was inactive: 3.

For `O=C(Nc1ccc(F)cc1)OCCOc1ccc([N+](=O)[O-])cc1`, which NAD/ADPR ratio is on record?
The NAD/ADPR ratio was inactive: 3.

For `COc1ccc(NC2=NC(C)(CO)CS2)cc1` (stereo unspecified), which NAD/ADPR ratio is on record?
The NAD/ADPR ratio was inactive: 3.

For `CCNc1ccccc1C(=O)O`, which NAD/ADPR ratio is on record?
Its NAD/ADPR ratio is inactive: 3.

For `CC(C)(C)c1ccc(NS(=O)(=O)c2ccc(N)cc2)cc1`, which NAD/ADPR ratio is on record?
The NAD/ADPR ratio was inactive: 3.

With `NC(=O)CCC(C(=O)O)N1C(=O)c2ccc(O)cc2C1=O` (stereo unspecified) as the compound, how does the NAD/ADPR ratio read?
Its NAD/ADPR ratio is inactive: 3.

`Cc1ccc(N=Nc2ccc(C)cc2NC(=O)Nc2ccccc2F)cc1` was tested. Which NAD/ADPR ratio did it give?
Its NAD/ADPR ratio is inactive: 3.

For `COc1cc(NC(=O)CCl)ccc(=O)c1`, which NAD/ADPR ratio is on record?
Its NAD/ADPR ratio is inactive: 3.

For `CC(=O)Oc1ccc(OC(C)=O)c2c1CC1(C)OC1(C)C2` (stereo unspecified), which NAD/ADPR ratio is on record?
The NAD/ADPR ratio was inactive: 3.

`Cc1[nH]c(=S)[nH]c(=O)c1Cc1c(O)ccc2ccccc12` was tested. Which NAD/ADPR ratio did it give?
Its NAD/ADPR ratio is inactive: 3.

With `NC(=O)N/N=C1\CC2CC1C1C=CCC21` (stereo unspecified) as the compound, how does the NAD/ADPR ratio read?
Its NAD/ADPR ratio is inactive: 3.

`O=C(O)c1ccccc1-c1ccccc1C(=O)Nc1ccc2c(c1)[nH]c(=O)c1ccccc12` was tested. Which NAD/ADPR ratio did it give?
Its NAD/ADPR ratio is inactive: 3.

For `CCOC(=O)C(=O)C1C(=O)Nc2ccccc21` (stereo unspecified), which NAD/ADPR ratio is on record?
Its NAD/ADPR ratio is inactive: 3.

With `c1ccc(-c2nc(-c3nccc4ccccc34)oc2-c2ccccc2)cc1` as the compound, how does the NAD/ADPR ratio read?
The NAD/ADPR ratio was inactive: 3.

How did the NAD/ADPR ratio turn out when `O=C(OCC(O)COC(=O)c1cccnc1)c1cccnc1` was run?
Its NAD/ADPR ratio is inactive: 3.

How did the NAD/ADPR ratio turn out when `O=[N+]([O-])c1cccc(-c2nc3ccccc3s/c2=N/O)c1` was run?
Its NAD/ADPR ratio is inactive: 3.

How did the NAD/ADPR ratio turn out when `Nc1ccc(Oc2ccc(N)c([N+](=O)[O-])c2)cc1[N+](=O)[O-]` was run?
The NAD/ADPR ratio was inactive: 3.

With `Cc1ccc(NC(=S)NC(=O)c2ccccc2)cc1NC(=S)NC(=O)c1ccccc1` as the compound, how does the NAD/ADPR ratio read?
Its NAD/ADPR ratio is inactive: 3.

`O=[N+]([O-])c1ccccc1/C=C/C=N/N=C/c1ccccc1O` was tested. Which NAD/ADPR ratio did it give?
The NAD/ADPR ratio was inactive: 3.

For `O=C(O)C(Cc1ccccc1N(CCO)CCO)N1C(=O)c2ccccc2C1=O` (stereo unspecified), which NAD/ADPR ratio is on record?
The NAD/ADPR ratio was inactive: 3.

How did the NAD/ADPR ratio turn out when `Cc1nc(N)nc(Nc2ccc(C#N)cc2)c1Br` was run?
Its NAD/ADPR ratio is inactive: 3.

With `CCN(CC)Cc1cc2[nH]c3c4ccc(Cl)cc4ncc3c2cc1OC` as the compound, how does the NAD/ADPR ratio read?
Its NAD/ADPR ratio is inactive: 3.

How did the NAD/ADPR ratio turn out when `O=C1c2ccccc2C(=O)N1c1ncn[nH]1` was run?
The NAD/ADPR ratio was inactive: 3.

For `CCCCN1C(=O)CC(C(=O)OCC)=C1C`, which NAD/ADPR ratio is on record?
Its NAD/ADPR ratio is inactive: 3.

Which NAD/ADPR ratio does the source give for `CN(C)S(=O)(=O)N1C(=O)c2ccccc2C1=O` here?
The NAD/ADPR ratio was inactive: 3.

Which NAD/ADPR ratio does the source give for `CSc1ccc(NC(=O)Nc2cc(C)ccn2)cc1` here?
Its NAD/ADPR ratio is inactive: 3.

How did the NAD/ADPR ratio turn out when `Nc1ccc(N=Nc2ccccc2)c2ccccc12` was run?
Its NAD/ADPR ratio is inactive: 3.

How did the NAD/ADPR ratio turn out when `O=C(c1cccnc1)C1Cc2ccccc2C1=O` (stereo unspecified) was run?
The NAD/ADPR ratio was inactive: 3.

How did the NAD/ADPR ratio turn out when `S=c1ncc2[nH]c(=S)[nH]c2[nH]1` was run?
The NAD/ADPR ratio was inactive: 3.
